Test results as given in publication PMC9505565.
These are yes or no findings as the source states them, for the method shown. In cells and extracts the contact can be indirect. Some binding calls cover weakened binding; strength is not graded here.

Target: T1, triggering receptor expressed on myeloid cells 2 (TREM2) (mouse (endogenous in mouse brain)) (UniProt Q99NH8)
T1 sequence: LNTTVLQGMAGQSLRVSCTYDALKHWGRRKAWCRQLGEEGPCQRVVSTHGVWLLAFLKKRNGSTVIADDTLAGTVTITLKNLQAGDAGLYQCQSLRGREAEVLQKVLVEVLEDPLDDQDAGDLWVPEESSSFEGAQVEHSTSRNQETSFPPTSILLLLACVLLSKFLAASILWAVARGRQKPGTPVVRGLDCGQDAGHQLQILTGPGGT
Assay: co-IP; brain tissue lysates (RIPA buffer) of WT, flox-Jak3 and IEC-Jak3-KO mice fed normal diet or high-fat diet; 1 ug IP antibody overnight at 4 C, Protein A Sepharose 1 h at 4 C, four washes, immunoblot; rabbit IgG and Jak3-KO brain as controls

B1: Janus kinase-3 (Jak3) (enzyme, UniProt Q62137 1-1100)
chain: MAPPSEETPLIPQRSCSLSSSEAGALHVLLPPRGPGPPQRLSFSFGDYLAEDLCVRAAKACGILPVYHSLFALATEDFSCWFPPSHIFCIEDVDTQVLVYRLRFYFPDWFGLETCHRFGLRKDLTSAILDLHVLEHLFAQHRSDLVSGRLPVGLSMKEQGEFLSLAVLDLAQMAREQAQRPGELLKTVSYKACLPPSLRDVIQGQNFVTRRRIRRTVVLALRRVVACQADRYALMAKYILDLERLHPAATTETFRVGLPGAQEEPGLLRVAGDNGISWSSGDQELFQTFCDFPEIVDVSIKQAPRVGPAGEHRLVTVTRMDGHILEAEFPGLPEALSFVALVDGYFRLICDSRHYFCKEVAPPRLLEEEAELCHGPITLDFAIHKLKAAGSLPGTYILRRSPQDYDSFLLTACVQTPLGPDYKGCLIRQDPSGAFSLVGLSQPHRSLRELLAACWNSGLRVDGAALNLTSCCAPRPKEKSNLIVVRRGCTPAPAPGCSPSCCALTQLSFHTIPTDSLEWHENLGHGSFTKIFRGRRREVVDGETHDSEVLLKVMDSRHRNCMESFLEAASLMSQVSYPHLVLLHGVCMAGDSIMVQEFVYLGAIDMYLRKRGHLVSASWKLQVTKQLAYALNYLEDKGLPHGNVSARKVLLAREGGDGNPPFIKLSDPGVSPTVLSLEMLTDRIPWVAPECLQEAQTLCLEADKWGFGATTWEVFSGGPAHITSLEPAKKLKFYEDQGQLPALKWTELAGLITQCMAYDPGRRPSFRAILRDLNGLITSDYELLSDPTPGIPSPRDELCGGAQLYACQDPAIFEERHLKYISLLGKGNFGSVELCRYDPLGDNTGPLVAVKQLQHSGPDQQRDFQREIQILKALHSDFIVKYRGVSYGPGRQSLRLVMEYLPSGCLRDFLQRHRARLHTDRLLLFAWQICKGMEYLGARRCVHRDLAARNILVESEAHVKIADFGLAKLLPLGKDYYVVREPGQSPIFWYAPESLSDNIFSRQSDVWSFGVVLYELFTYCDKSCSPSAEFLRMMGPEREGPPLCRLLELLAEGRRLPPPPTCPTEVQELMQLCWAPSPHDRPAFGTLSPQLDALWRGRPG
In the case of B1, the binding is reported as “binds”.
